PubChem BioAssay AID1159584 – Peter MacCallum Cancer Centre – 2016
Assay: 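Knock-downs that harm CDH1-null cells more than parental MCF10A cells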 (primary screen). Cells: human MCF10A breast epithelial cells, parental and CDH1-null. Reagent: siRNA against human genes. Measured: 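ATP luminescence (CellTiter-Glo) viability per line relative to mean mock wells over all plates, and the ratio of CDH1-null to parental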. Reading the numbers: CDH1-null / parental viability ratio: higher = CDH1-null cells survive relatively better than parental; CDH1-null viability vs mock: higher = more viable CDH1-null cells; parental viability vs mock: higher = more viable parental cells.
Shown is one part, drawn at random, of about 18,000 reagents tested. No sequences are given here. The record does not give: the amount of reagent, the time to read-out.

| target | CDH1-null / parental viability ratio | CDH1-null viability vs mock (fraction of mock) | parental viability vs mock (fraction of mock) |
| --- | --- | --- | --- |
| VDAC3 (voltage dependent anion channel 3) | 1.42 | 1.02 | 0.72 |
| OR7A10 (olfactory receptor family 7 subfamily A member 10) | 0.99 | 0.97 | 0.98 |
| FUT8 (fucosyltransferase 8) | 1.09 | 0.88 | 0.81 |
| MCM6 (minichromosome maintenance complex component 6) | 1.05 | 0.81 | 0.77 |
| MLKL (mixed lineage kinase domain like pseudokinase) | 0.83 | 0.84 | 1.01 |
| WASHC4 (WASH complex subunit 4) | 1.05 | 0.64 | 0.61 |
| FRS2 (fibroblast growth factor receptor substrate 2) | 1.32 | 0.83 | 0.63 |
| SSBP3 (single stranded DNA binding protein 3) | 0.91 | 0.6 | 0.66 |
| ASIC1 (acid sensing ion channel subunit 1) | 1.26 | 1.01 | 0.8 |
| ADPRHL1 (ADP-ribosylhydrolase like 1) | 0.73 | 0.57 | 0.78 |
| CYP2E1 (cytochrome P450 family 2 subfamily E member 1) | 1.05 | 1.05 | 1 |
| PRR20A (proline rich 20A) | 1.09 | 0.94 | 0.86 |
| FIS1 (fission, mitochondrial 1) | 0.91 | 0.78 | 0.86 |
| RAMP2 (receptor activity modifying protein 2) | 0.91 | 0.85 | 0.93 |
| CCNE1 (cyclin E1) | 1.06 | 0.68 | 0.64 |
| RABAC1 (Rab acceptor 1) | 0.91 | 0.4 | 0.44 |
| CDKN2B (cyclin dependent kinase inhibitor 2B) | 0.87 | 0.8 | 0.92 |
| GK2 (glycerol kinase 2) | 0.96 | 0.89 | 0.93 |
| RENBP (renin binding protein) | 1.02 | 1.1 | 1.08 |
| SUPT6H | 1.17 | 0.56 | 0.48 |
| DDX31 (DEAD-box helicase 31) | 0.82 | 0.74 | 0.9 |
| CYBB (cytochrome b-245 beta chain) | 1.01 | 0.76 | 0.75 |
| B3GAT3 (beta-1,3-glucuronyltransferase 3) | 0.84 | 0.69 | 0.82 |
| SMARCAL1 (SNF2 related chromatin remodeling annealing helicase 1) | 0.84 | 0.62 | 0.74 |
| NUP214 (nucleoporin 214) | 1.01 | 0.81 | 0.8 |
| CMIP (c-Maf inducing protein) | 0.98 | 0.56 | 0.57 |
| AMFR (autocrine motility factor receptor) | 0.82 | 0.66 | 0.8 |
| DMC1 (DNA meiotic recombinase 1) | 0.84 | 0.72 | 0.86 |
| LAMB2 (laminin subunit beta 2) | 1.24 | 0.92 | 0.74 |
| HRG (histidine rich glycoprotein) | 0.95 | 0.62 | 0.65 |
| TNFRSF10A (TNF receptor superfamily member 10a) | 0.96 | 0.88 | 0.92 |
| MRPL17 (mitochondrial ribosomal protein L17) | 1.16 | 1.08 | 0.93 |
| NXF1 (nuclear RNA export factor 1) | 0.67 | 0.08 | 0.12 |
| SMC4 (structural maintenance of chromosomes 4) | 1.19 | 0.81 | 0.68 |
| IL2RB (interleukin 2 receptor subunit beta) | 0.98 | 0.78 | 0.8 |
| LRRN1 (leucine rich repeat neuronal 1) | 1.03 | 0.38 | 0.37 |
| FUBP1 (far upstream element binding protein 1) | 0.9 | 0.8 | 0.89 |
| ATXN7L1 (ataxin 7 like 1) | 1.05 | 1.29 | 1.23 |
| DHRS3 (dehydrogenase/reductase 3) | 0.73 | 0.51 | 0.7 |
| RGS7 (regulator of G protein signaling 7) | 0.95 | 1.04 | 1.09 |
| DLK1 (delta like non-canonical Notch ligand 1) | 0.84 | 0.72 | 0.86 |
| PRELID3B (PRELI domain containing 3B) | 0.94 | 0.9 | 0.96 |
| KDR (kinase insert domain receptor) | 1.02 | 0.96 | 0.94 |
| CABYR (calcium binding tyrosine phosphorylation regulated) | 1.1 | 0.88 | 0.8 |
| PDE6G (phosphodiesterase 6G) | 0.95 | 0.78 | 0.82 |
| SMOC2 (SPARC related modular calcium binding 2) | 1 | 0.48 | 0.48 |
| CEP76 (centrosomal protein 76) | 1.08 | 1.17 | 1.08 |
| METTL27 (methyltransferase like 27) | 0.97 | 0.95 | 0.98 |
| PRSS37 (serine protease 37) | 0.73 | 0.58 | 0.79 |
| CD72 (CD72 molecule) | 0.96 | 0.71 | 0.74 |
| TMEM236 (transmembrane protein 236) | 0.93 | 0.86 | 0.92 |

Laid out differently: results already given
{"target":"DDX31 (DEAD-box helicase 31)","CDH1-null / parental viability ratio":0.82,"CDH1-null viability vs mock (fraction of mock)":0.74,"parental viability vs mock (fraction of mock)":0.9}
{"target":"CYBB (cytochrome b-245 beta chain)","CDH1-null / parental viability ratio":1.01,"CDH1-null viability vs mock (fraction of mock)":0.76,"parental viability vs mock (fraction of mock)":0.75}
{"target":"B3GAT3 (beta-1,3-glucuronyltransferase 3)","CDH1-null / parental viability ratio":0.84,"CDH1-null viability vs mock (fraction of mock)":0.69,"parental viability vs mock (fraction of mock)":0.82}
{"target":"SMARCAL1 (SNF2 related chromatin remodeling annealing helicase 1)","CDH1-null / parental viability ratio":0.84,"CDH1-null viability vs mock (fraction of mock)":0.62,"parental viability vs mock (fraction of mock)":0.74}
{"target":"NUP214 (nucleoporin 214)","CDH1-null / parental viability ratio":1.01,"CDH1-null viability vs mock (fraction of mock)":0.81,"parental viability vs mock (fraction of mock)":0.8}
{"target":"CMIP (c-Maf inducing protein)","CDH1-null / parental viability ratio":0.98,"CDH1-null viability vs mock (fraction of mock)":0.56,"parental viability vs mock (fraction of mock)":0.57}
{"target":"AMFR (autocrine motility factor receptor)","CDH1-null / parental viability ratio":0.82,"CDH1-null viability vs mock (fraction of mock)":0.66,"parental viability vs mock (fraction of mock)":0.8}
{"target":"DMC1 (DNA meiotic recombinase 1)","CDH1-null / parental viability ratio":0.84,"CDH1-null viability vs mock (fraction of mock)":0.72,"parental viability vs mock (fraction of mock)":0.86}
{"target":"LAMB2 (laminin subunit beta 2)","CDH1-null / parental viability ratio":1.24,"CDH1-null viability vs mock (fraction of mock)":0.92,"parental viability vs mock (fraction of mock)":0.74}
{"target":"HRG (histidine rich glycoprotein)","CDH1-null / parental viability ratio":0.95,"CDH1-null viability vs mock (fraction of mock)":0.62,"parental viability vs mock (fraction of mock)":0.65}
{"target":"TNFRSF10A (TNF receptor superfamily member 10a)","CDH1-null / parental viability ratio":0.96,"CDH1-null viability vs mock (fraction of mock)":0.88,"parental viability vs mock (fraction of mock)":0.92}
{"target":"MRPL17 (mitochondrial ribosomal protein L17)","CDH1-null / parental viability ratio":1.16,"CDH1-null viability vs mock (fraction of mock)":1.08,"parental viability vs mock (fraction of mock)":0.93}
{"target":"NXF1 (nuclear RNA export factor 1)","CDH1-null / parental viability ratio":0.67,"CDH1-null viability vs mock (fraction of mock)":0.08,"parental viability vs mock (fraction of mock)":0.12}

More records follow.
| target | CDH1-null / parental viability ratio | CDH1-null viability vs mock (fraction of mock) | parental viability vs mock (fraction of mock) |
| --- | --- | --- | --- |
| SLC7A13 | 0.89 | 0.82 | 0.92 |
| ALX4 (ALX homeobox 4) | 1.04 | 0.85 | 0.82 |
| SIRAL2 (SIR2 antiphage like 2) | 1.19 | 0.44 | 0.37 |
| PHPT1 (phosphohistidine phosphatase 1) | 1.38 | 0.83 | 0.6 |
| GSTA3 (glutathione S-transferase alpha 3) | 1.01 | 0.79 | 0.78 |
| MSH2 (mutS homolog 2) | 0.93 | 1 | 1.08 |
| MRPL18 (mitochondrial ribosomal protein L18) | 1.14 | 1.12 | 0.98 |
| FOXD4L1 (forkhead box D4 like 1) | 1.09 | 1.26 | 1.16 |
| BTBD1 (BTB domain containing 1) | 1.07 | 0.98 | 0.92 |
| FGF17 (fibroblast growth factor 17) | 1.15 | 1 | 0.87 |
| POLR3K (RNA polymerase III subunit K) | 1.39 | 1.25 | 0.9 |
| CCNJ (cyclin J) | 0.72 | 0.66 | 0.92 |
| BRD8 (bromodomain containing 8) | 0.78 | 0.62 | 0.79 |
| CCSER2 (coiled-coil serine rich protein 2) | 0.89 | 0.83 | 0.93 |
| DKK1 (dickkopf Wnt signaling pathway inhibitor 1) | 1.16 | 1 | 0.86 |
| TREX1 (three prime repair exonuclease 1) | 0.95 | 0.7 | 0.74 |
| CUL3 (cullin 3) | 1 | 0.88 | 0.88 |
| GRWD1 (glutamate rich WD repeat containing 1) | 1.07 | 1.06 | 0.99 |
| GH1 (growth hormone 1) | 1.4 | 0.59 | 0.42 |
| CCL16 (C-C motif chemokine ligand 16) | 0.76 | 0.7 | 0.92 |
| SOX14 (SRY-box transcription factor 14) | 0.97 | 0.66 | 0.68 |
| ARL5B (ARF like GTPase 5B) | 0.93 | 0.8 | 0.86 |
| TMEM203 (transmembrane protein 203) | 0.76 | 0.34 | 0.45 |
| ADCY9 (adenylate cyclase 9) | 0.95 | 1.04 | 1.09 |
| TSPAN32 (tetraspanin 32) | 1 | 0.52 | 0.52 |
| PLCL2 (phospholipase C like 2) | 1.04 | 1.02 | 0.98 |
| BEST3 (bestrophin 3) | 1.29 | 1.06 | 0.82 |
| MAK (male germ cell associated kinase) | 1.09 | 1.02 | 0.94 |
| TMEM237 (transmembrane protein 237) | 0.87 | 0.52 | 0.6 |
| GALC (galactosylceramidase) | 0.98 | 0.86 | 0.88 |
| IFT122 (intraflagellar transport 122) | 1.02 | 0.86 | 0.84 |
| CRTAC1 (cartilage acidic protein 1) | 1.32 | 0.95 | 0.72 |
| HOXA1 (homeobox A1) | 0.88 | 0.82 | 0.93 |
| CCDC68 (coiled-coil domain containing 68) | 0.72 | 0.64 | 0.89 |
| NACA2 (nascent polypeptide associated complex subunit alpha 2) | 1.03 | 1.1 | 1.07 |
| ZNF747 (zinc finger protein 747) | 0.91 | 0.61 | 0.67 |
